# Measurements: PubChem BioAssay AID2685 (National Center for Advancing Translational Sciences (NCATS), 2010)
# This is one part of the list. The main result of the screen is listed elsewhere. These columns were measured beside it and carry no call. Compounds called inactive in the main read-out are mostly missing here. The note in brackets gives the kind of curve behind each potency; many fits are weak.
# Test: qHTS Assay for Lipid Storage Modulators in Drosophila S3 Cells;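 for cell number change: cells counted by Cell Tracker Red CMTPX staining in the red channel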
# Conditions: BODIPY lipid droplet fluorescence, 18-24 h; for cell number change: measured here: cell count max response, cells fed with added oleic acid
# In short: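 Drosophila S3 cells got compounds at several concentrations plus oleic acid (400 uM solution). Laser-scanning cytometry with 488 nm excitation read lipid droplets at 500-530 nm and cells at 575-640 nm. Percent activity was relative to 20 uM Triacsin C.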
# [1] = measured here: cell number channel AC50, cells fed with added oleic acid
# [2] = measured here: lipid fluorescence (Fed channel) AC50, cells fed with added oleic acid
smiles,measurement,setting,value
COc1ccccc1-c1nc2c(c(SCC(=O)N3CCCCC3)n1)Cc1c(CO)cnc(C)c1O2,cell number change,,-43.8%
same,AC50,[1],"10.3 µM [falling, partial curve]"
O=C(COc1ccc(Cl)cc1Cl)Nc1ccc2nc3n(c(=O)c2c1)CCCC3,cell number change,,-1.99%
same,AC50,[2],"0.82 µM [falling, single point]"
COc1cc(/C=N/NC(=O)CCN2CCN(Cc3ccccc3)CC2)cc(OC)c1OC,cell number change,,41.6%
same,AC50,[1],"8.2 µM [rising, partial curve]"
CCCN(C(=O)C1CSC2(C)CCC(=O)N12)c1c(N)n(Cc2ccccc2)c(=O)[nH]c1=O (centres undefined),cell number change,,-77.4%
same,AC50,[1],"29.1 µM [falling, single point]"
CCNS(=O)(=O)c1ccc(CCC(=O)N2CCN(c3cc(Cl)ccc3C)CC2)cc1,cell number change,,-40.2%
same,AC50,[1],"11.6 µM [falling, partial curve, poor fit]"
same,AC50,[2],"23.1 µM [falling, single point]"
COc1ccc(CCNC(=O)C2CCN(S(=O)(=O)c3ccc(OC)c(OC)c3)CC2)cc1,cell number change,,41.2%
same,AC50,[1],"14.6 µM [rising, single point]"
same,AC50,[2],"6.51 µM [rising, single point]"
COc1ccc(/C=N/Nc2ccccn2)c(OC)c1OC,cell number change,,89.2%
same,AC50,[2],"29.1 µM [rising, single point]"
COc1ccc(C)cc1NC(=O)C1CCCN(S(=O)(=O)c2cccnc2)C1 (centres undefined),cell number change,,12.5%
same,AC50,[2],"10.3 µM [rising, partial curve]"
O=C(COc1nncc2ccccc12)Nc1ccc(Br)cc1F,cell number change,,-22.9%
Cc1ccc(OCC(=O)Nc2ccc(C)c(S(=O)(=O)N3CCCCC3)c2)c([N+](=O)[O-])n1,cell number change,,9.35%
same,AC50,[2],"0.00461 µM [rising, full curve, poor fit]"
O=C(COc1ccccc1)N1CCN(C(=O)c2ccc([N+](=O)[O-])cc2)CC1,AC50,[2],"29.1 µM [rising, partial curve, poor fit]"
CCOC(=O)c1ccc(Nc2c(OCC)c(=O)c2=O)cc1,AC50,[2],"3.66 µM [rising, single point]"
CCC(C)NC(=O)CSc1ccc(Cl)cc1 (centres undefined),cell number change,,21.4%
same,AC50,[2],"29.1 µM [rising, single point]"
CCOCCNC(=O)c1ccc2c3c(cccc13)CC2,cell number change,,-9.49%
CN(C)Cc1nc2c([nH]1)c(=O)n(C)c(=O)n2C,cell number change,,-27.1%
same,AC50,[1],"2.59 µM [falling, full curve, poor fit]"
same,AC50,[2],"3.66 µM [falling, full curve]"
NS(=O)(=O)c1cccc(NC(=O)CC2(CC(=O)O)CCCC2)c1,cell number change,,2.7%
CC1(C)Cc2cccc(C(=O)Nc3ccc(Cl)cc3)c2O1,cell number change,,-12.3%
same,AC50,[1],"0.291 µM [falling, partial curve]"
same,AC50,[2],"6.51 µM [falling, single point]"
COc1ccc(-c2noc(N3CCC(C(=O)N4CCN(c5ccccn5)CC4)CC3)n2)cc1,cell number change,,-30.4%
same,AC50,[1],"13 µM [falling, partial curve]"
same,AC50,[2],"20.6 µM [falling, partial curve, poor fit]"
O=C(c1cc([N+](=O)[O-])ccc1N1CCCCC1)N1CCCC1,cell number change,,9.11%
CC1=Nc2ccccc2/C1=C\c1sc(Nc2ccc(C)cc2)nc1O,cell number change,,-54.1%
same,AC50,[1],"29.1 µM [falling, single point]"
same,AC50,[2],"1.84 µM [rising, partial curve, poor fit]"
CC(C)c1ccc(OCc2ccc(C(=O)NN3CCN(C)CC3)o2)cc1,cell number change,,-35%
Cc1cccc(NC(=O)c2ccc(N3C(=O)C4CCCCC4C3=O)cc2)c1C (centres undefined),cell number change,,26.9%
same,AC50,[2],"29.1 µM [rising, single point]"
C=CCNC(=S)NCc1ccc(CNC(=S)NCC=C)cc1,cell number change,,-5.97%
same,AC50,[2],"3.66 µM [falling, partial curve]"
COCCNC(=O)c1cnn2c(C(F)(F)F)cc(-c3ccc(C)cc3)nc12,cell number change,,-1.34%
same,AC50,[2],"0.0058 µM [falling, full curve, poor fit]"
CCC(=O)n1nc(-c2cccnc2)nc1NCc1ccc(F)cc1,cell number change,,-15.5%
CC(C)(C)c1ccc(C(=O)NCC(=O)NNC(=O)c2ccccc2O)cc1,cell number change,,-27.6%
same,AC50,[2],"1.3 µM [falling, full curve]"
CC1(C)Cc2ccccc2-c2nnc(-c3ccc4ccccc4n3)n21,AC50,[2],"18.4 µM [falling, partial curve, poor fit]"
CC(C)(C)OC(=O)N1CCN(c2ccc([N+](=O)[O-])cc2)CC1,cell number change,,-23%
same,AC50,[2],"0.092 µM [rising, single point]"
O=C(NNC(=O)c1ccccc1OCc1ccc(F)cc1)c1ccncc1,AC50,[1],"0.058 µM [rising, full curve, poor fit]"
CC(C)(C)OC(=O)N1CCC(Cc2cc(-c3cccc(Br)c3)no2)(C(=O)O)CC1,cell number change,,2.69%
CCN(CC)CCCN(Cc1cc2cc3c(cc2[nH]c1=O)OCCO3)C(=O)Nc1ccc(F)cc1,cell number change,,-33.7%
same,AC50,[1],"0.82 µM [falling, full curve, poor fit]"
O=C(O)c1ccc2c(=O)n3c(nc2c1)/C(=C/c1ccc(OC(F)F)cc1OC(F)F)CC3,cell number change,,12.8%
O=C(NCc1cccnc1)Nc1ccc(Br)cc1,AC50,[1],"1.84 µM [falling, partial curve]"
CC1=CCC(C(=O)O)(C(=O)N/N=C/c2cccs2)C(c2ccc([N+](=O)[O-])cc2)C1 (centres undefined),cell number change,,18.7%
CC(C)CN(C(=O)COC(=O)CSc1ccccc1)c1c(N)n(Cc2ccccc2)c(=O)[nH]c1=O,AC50,[2],"16.4 µM [falling, single point]"
COc1ccc(N2CCN(S(=O)(=O)c3ccc4c(c3)CC(C)N4C(=O)C3CC3)CC2)cc1 (centres undefined),cell number change,,17.9%
same,AC50,[2],"6.51 µM [rising, single point]"
Cc1c(Cl)cccc1NC(=O)CNC(=O)C1CCN(C(=O)Nc2ccccc2)CC1,cell number change,,-0.937%
same,AC50,[2],"0.00461 µM [rising, full curve, poor fit]"
CC(NC(=O)CN1CCOCC1)c1ccccc1 (centres undefined),cell number change,,6.35%
same,AC50,[2],"18.4 µM [rising, single point]"
COc1ccc2c(COC(=O)CCS(=O)(=O)c3ccc(C)cc3)cc(=O)oc2c1,cell number change,,-8%
Cc1ccc(N(C(=O)c2snc(C(N)=O)c2N)C(C(=O)NCc2ccccc2)c2ccncc2)c(C)c1 (centres undefined),cell number change,,-19.8%
same,AC50,[2],"0.461 µM [rising, single point]"
Cc1cc(C)c(OCC(=O)NCC(C)(C)N2CCOCC2)c(C)c1,cell number change,,12.9%
same,AC50,[1],"0.184 µM [falling, full curve, poor fit]"
CCOc1cc(C2C3=C(CC(C)(C)CC3=O)N(CCCOC)C3=C2C(=O)CC(C)(C)C3)ccc1O,cell number change,,1.4%
same,AC50,[2],"16.4 µM [rising, single point]"
CC12CCC(C(=O)NNc3ccc([N+](=O)[O-])cc3)(OC1=O)C2(C)C (centres undefined),cell number change,,-9.82%
same,AC50,[2],"1.3 µM [rising, partial curve]"
COc1cc(OC)cc(-c2nc(-c3ccc(Br)cc3)no2)c1,cell number change,,-7.5%
Cc1ccc(-n2c(SCC(=O)Nc3ccc(C(=O)O)cc3)nnc2-c2ccncc2)cc1,cell number change,,-22.7%
COc1ccc(N2C(=O)CC(N3CCC(c4nc5ccccc5[nH]4)CC3)C2=O)cc1 (centres undefined),cell number change,,39.4%
same,AC50,[1],"16.4 µM [rising, single point]"
COC(=O)c1ccc(CSc2nc3sc4c(c3c(=O)n2C)CCCC4)o1,cell number change,,2.54%
CCOC(=O)C1=C(C)N=c2s/c(=C\c3ccc(OC(C)=O)cc3)c(=O)n2C1/C=C/c1ccccc1 (centres undefined),cell number change,,27.2%
same,AC50,[1],"2.91 µM [rising, single point]"
same,AC50,[2],"11.6 µM [rising, partial curve, poor fit]"
CCCCCOc1ccc(C2NC(=O)NC2=O)cc1 (centres undefined),cell number change,,-24.9%
same,AC50,[1],"2.91 µM [falling, full curve, poor fit]"
same,AC50,[2],"3.66 µM [falling, single point]"
CCc1ccc(NC(=O)N(Cc2ccco2)C(C)c2cccs2)cc1 (centres undefined),cell number change,,-0.323%
same,AC50,[2],"0.731 µM [rising, single point]"
COc1cc(CC(=O)OCC(=O)NCCc2ccc(S(N)(=O)=O)cc2)cc(OC)c1OC,cell number change,,-36.7%
same,AC50,[1],"0.184 µM [falling, full curve, poor fit]"
same,AC50,[2],"2.31 µM [falling, full curve, poor fit]"
CN(C)S(=O)(=O)NCc1ccc2c(c1)OCO2,cell number change,,-143%
same,AC50,[1],"29.1 µM [falling, single point]"
c1ccc(-c2nnsc2Sc2ccccn2)cc1,cell number change,,62.8%
N#CC(C#N)=c1ccc2c(c1)N1C(c3ccccc3)=CC(c3ccccc3)C3CCCCC31N=2 (centres undefined),cell number change,,-13.5%
same,AC50,[2],"0.517 µM [falling, full curve]"
CC1=C(C(=O)OCc2ccccc2)C(c2cccc(F)c2)NC(=O)N1 (centres undefined),cell number change,,-9.09%
COC(=O)N/N=C/c1ccccc1Cl,cell number change,,-25%
CCN1CCN(C2=C(NS(=O)(=O)c3ccc(NC(C)=O)cc3)C(=O)c3ccccc3C2=O)CC1,cell number change,,-6.6%
COc1ccc(Cl)cc1NC(=O)CN(C)S(=O)(=O)c1cccs1,cell number change,,-25.4%
same,AC50,[2],"1.3 µM [rising, partial curve, poor fit]"
Cc1ccc(OCC(=O)NCC(=O)Nc2ccc(F)cc2)c([N+](=O)[O-])n1,cell number change,,-16.5%
Cc1cc(=O)[nH]c(SCC(=O)Nc2cc(S(=O)(=O)N3CCCC3)ccc2Cl)n1,cell number change,,19.1%
same,AC50,[1],"4.11 µM [rising, single point]"
CC(=O)c1cccc(OCC(=O)N(Cc2ccco2)c2c(N)n(Cc3ccccc3)c(=O)[nH]c2=O)c1,cell number change,,-7.39%
same,AC50,[2],"29.1 µM [falling, partial curve, poor fit]"
Cc1noc(C)c1C(=O)OC(C)C(=O)Nc1ccc(C(N)=O)cc1 (centres undefined),cell number change,,14.1%
same,AC50,[1],"6.51 µM [falling, single point]"
